{"source": "paper PMC3110180", "key": {"[1]": {"target": "T1, Wts:FLAG (Drosophila) (UniProt Q9VA38)", "T1 sequence": "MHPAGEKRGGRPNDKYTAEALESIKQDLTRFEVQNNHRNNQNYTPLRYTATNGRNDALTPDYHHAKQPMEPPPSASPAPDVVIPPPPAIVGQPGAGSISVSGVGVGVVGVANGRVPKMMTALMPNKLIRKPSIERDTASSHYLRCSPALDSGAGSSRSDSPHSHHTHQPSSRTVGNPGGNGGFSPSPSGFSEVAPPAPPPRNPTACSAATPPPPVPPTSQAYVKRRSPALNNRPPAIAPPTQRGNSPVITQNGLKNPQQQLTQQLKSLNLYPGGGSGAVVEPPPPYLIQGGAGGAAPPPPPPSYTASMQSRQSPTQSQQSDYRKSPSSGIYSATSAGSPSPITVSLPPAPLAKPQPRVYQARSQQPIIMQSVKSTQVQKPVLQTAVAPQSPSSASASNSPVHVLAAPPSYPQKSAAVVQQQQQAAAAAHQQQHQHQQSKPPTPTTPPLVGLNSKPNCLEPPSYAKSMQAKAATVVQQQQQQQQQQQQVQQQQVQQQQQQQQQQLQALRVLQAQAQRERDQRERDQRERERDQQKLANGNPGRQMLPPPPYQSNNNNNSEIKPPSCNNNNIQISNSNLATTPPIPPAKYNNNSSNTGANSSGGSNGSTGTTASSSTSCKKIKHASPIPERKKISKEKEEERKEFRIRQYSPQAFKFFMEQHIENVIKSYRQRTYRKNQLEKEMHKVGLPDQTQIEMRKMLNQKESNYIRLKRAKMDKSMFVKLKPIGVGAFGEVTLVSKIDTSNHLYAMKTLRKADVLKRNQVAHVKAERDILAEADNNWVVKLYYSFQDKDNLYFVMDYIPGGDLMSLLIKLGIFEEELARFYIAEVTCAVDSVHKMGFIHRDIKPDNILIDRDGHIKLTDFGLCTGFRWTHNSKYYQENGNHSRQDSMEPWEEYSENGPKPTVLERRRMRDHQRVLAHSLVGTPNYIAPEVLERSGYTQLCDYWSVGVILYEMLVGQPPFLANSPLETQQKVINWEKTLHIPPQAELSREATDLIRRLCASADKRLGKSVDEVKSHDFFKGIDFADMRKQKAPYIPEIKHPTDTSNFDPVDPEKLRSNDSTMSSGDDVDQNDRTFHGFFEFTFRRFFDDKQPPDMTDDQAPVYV", "assay": "co-IP; three proteins co-expressed in S2 cells: Wts:FLAG with Zyx:V5 or Zyx-LD:V5 and Dachs:V5 (1x, 3x, 6x pUAS-dachs:V5 plasmid); anti-FLAG beads; V5-tagged proteins detected by Western blot"}, "[2]": {"target": "T1, Wts:FLAG (Drosophila)", "assay": "co-IP; tagged proteins co-expressed in Drosophila S2 cells; lysates cleared with protein G beads; anti-FLAG M2 beads overnight at 4°C, six washes with RIPA buffer; V5-tagged proteins detected by Western blot; GFP:FLAG as negative control"}}, "note": "These are yes or no findings as the source states them, for the method shown. In cells and extracts the contact can be indirect. A result given as binding can be weak or reduced; the word gives no strength. Tags and fused reporters may be left off the sequences shown."}
{"substance": "Dachs:V5 (Drosophila)", "values": [{"measurement": "binding", "setting": "[1]", "result": "binds"}]}
{"substance": "Zyx:V5 (Drosophila)", "values": [{"measurement": "binding", "setting": "[2]", "result": "binds weakly"}, {"measurement": "binding", "setting": "[1]", "result": "binds"}]}
